{"source": "PubChem BioAssay AID504648", "about": "(National Center for Advancing Translational Sciences (NCATS), 2011)", "note": "In all, about 390,000 compounds went through this assay and about 610 (0.16%) were called active. This list was built around the results that the source calls inconclusive (neither active nor inactive); the mix of calls is not that of the screen. Calls come from the whole dose curve; as a rule, active = well fitted inhibition curve with a large enough effect; inconclusive = small, poorly fitted or top-dose-only effect, or effect the other way, or another doubt; inactive = no such curve, though single readings can be large or run the other way. Potencies of inconclusive entries are doubtful fits and often do not repeat. Potency is the fitted concentration of half-maximal effect."}
{"assay": "Nrf2 qHTS screen for inhibitors: counterscreen for cytotoxicity", "conditions": "A549 ARE-Fluc cells, CellTiter-Fluor viability, 18-24 h; series mostly up to 46 µM", "method_in_brief": "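Cytotoxicity counterscreen: CellTiter-Fluor fluorescence was measured in A549 ARE_Fluc cells after 18-24 h of compound exposure in a concentration series. The subsequent BugLite luminescent read reports ARE-luciferase activity.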"}
{"smiles": "CCC(C)(C)NC(=O)c1cc([N+](=O)[O-])ccc1N1CCCCC1", "Potency": "inconclusive: 32.6 µM [falling, partial curve, poor fit]"}
{"smiles": "Cc1cc(C)nc(SCC(=O)Nc2sc3c(c2C#N)CCC(C)C3)n1", "note": "(stereo not drawn)", "Potency": "inactive"}
{"smiles": "NC(N)=NN=C(c1ccc(F)cc1)c1ccc(C(F)(F)F)cc1", "Potency": "inconclusive: 13 µM [falling, partial curve, poor fit]"}
{"smiles": "Oc1c(CNc2ccccc2)cc(COCc2ccccc2)c2cccnc12", "Potency": "inactive"}
{"smiles": "CCSc1nnc(-c2sc3nnc(-c4ccccc4)c(-c4ccccc4)c3c2N)o1", "Potency": "inconclusive: 9.2 µM [activator, partial curve]"}
{"smiles": "Cc1ccc(NC(=O)c2cc3ccccc3cc2O)cc1", "Potency": "inconclusive: 25.9 µM [falling, partial curve, poor fit]"}
{"smiles": "CC(C)CCNC(=O)C(c1ccco1)N(Cc1cccs1)C(=O)Cn1nnc2ccccc21", "note": "(stereo not drawn)", "Potency": "inactive"}
{"smiles": "CN(C)CCN1C(=O)c2cccc3cc([N+](=O)[O-])cc(c23)C1=O", "Potency": "active: 8.2 µM"}
{"smiles": "COc1ccc(-c2nn(-c3ccccc3)cc2C2CC(c3cccs3)=NN2C(=O)CCC(=O)O)cc1", "note": "(stereo not drawn)", "Potency": "inconclusive: 10.3 µM [falling, partial curve, poor fit]"}
{"smiles": "CCN(Cc1ccccc1)S(=O)(=O)c1ccc(C(=O)N(CCCN(C)C)c2nc3cc(C)cc(C)c3s2)cc1", "Potency": "inconclusive: 25.9 µM [falling, single point]"}
{"smiles": "FC(F)(F)c1cc(-c2ccccc2)nc(NC2CCCC2)n1", "Potency": "inconclusive: 25.9 µM [falling, single point]"}
{"smiles": "COc1ccc(C2=NCC(CSc3nnnn3C)S2)cc1", "note": "(stereo not drawn)", "Potency": "inconclusive: 11.6 µM [falling, partial curve, poor fit]"}
{"smiles": "N#C/C(=C\\c1ccccc1)C(=O)Nc1cccnc1", "Potency": "inconclusive: 29.1 µM [falling, single point]"}
{"smiles": "O=C(CN1c2cccc3cccc(c23)S1(=O)=O)NCc1ccc2c(c1)OCO2", "Potency": "inconclusive: 4.11 µM [activator, full curve, poor fit]"}
{"smiles": "CCC(=O)NNC(=S)NC(=O)c1ccc(C)cc1", "Potency": "inconclusive: 29.1 µM [falling, single point]"}
{"smiles": "CC(O)CN1C(=O)C(CC(=O)Nc2ccc(Cl)cc2)SC1=Nc1ccccc1", "note": "(stereo not drawn)", "Potency": "inconclusive: 29.1 µM [falling, partial curve, poor fit]"}
{"smiles": "Cc1noc(/C=C/c2nn(C)cc2Cl)c1[N+](=O)[O-]", "Potency": "inconclusive: 7.31 µM [falling, partial curve]"}
{"smiles": "O=C(CNC(=S)N(Cc1ccccc1)Cc1cccs1)NCc1ccc(F)cc1", "Potency": "inconclusive: 29.1 µM [falling, single point]"}
{"smiles": "COc1ccc(CN(C(=O)c2nsc(Cl)c2Cl)C(C(=O)NC2CCCCC2)c2ccc(OC)cc2)cc1", "note": "(stereo not drawn)", "Potency": "inconclusive: 1.84 µM [falling, partial curve, poor fit]"}
{"smiles": "CCCC(C)NC(=O)COc1ccc(Sc2ccc(OCC(=O)NC(C)CCC)cc2)cc1", "note": "(stereo not drawn)", "Potency": "inactive"}
{"smiles": "CC(CCc1ccccc1)NC(=O)COC(=O)c1ccc(S(C)(=O)=O)c([N+](=O)[O-])c1", "note": "(stereo not drawn)", "Potency": "inconclusive: 29.1 µM [falling, single point]"}
{"smiles": "O=C(c1ccco1)N1CCN(C(=O)c2ccco2)C1=S", "Potency": "inconclusive: 20.6 µM [falling, single point]"}
{"smiles": "Cc1ccc(C)c(CNC(=O)CCn2cccn2)c1", "Potency": "inactive"}
{"smiles": "CCN(CC)S(=O)(=O)c1cccc(C(=O)N[C@H](C(=O)Nc2nc3ccc(F)cc3s2)C(C)C)c1", "Potency": "inconclusive: 29.1 µM [falling, single point]"}
{"smiles": "Cc1cc(NC(=O)COC(=O)c2ccccc2S(=O)(=O)N(C)c2ccccc2)no1", "Potency": "inconclusive: 16.4 µM [falling, partial curve, poor fit]"}
{"smiles": "COc1ccccc1N1C(=O)N(C(C)=O)C2C1Nc1ccccc1N2C", "note": "(stereo not drawn)", "Potency": "active: 11.6 µM"}
{"smiles": "CC(=O)N1CCc2cc(S(=O)(=O)CCC(=O)N3CCc4ccccc4C3)ccc21", "Potency": "inactive"}
{"smiles": "CCCCc1nn2c(=O)cc(COC(=O)c3ccc(NC(=O)CCc4ccccc4)cc3)nc2s1", "Potency": "inactive"}
{"smiles": "CCN(CC)C(=O)c1csc(Nc2ccc(C)cc2)n1", "Potency": "inactive"}
{"smiles": "Cc1ccc(S(=O)(=O)CC(=O)Nc2sc3c(c2C(N)=O)CCCC3)cc1", "Potency": "inactive"}
{"smiles": "O=C(O)CCc1ccc(-c2ccccc2)n1CC(=O)Nc1cccc(C(F)(F)F)c1", "Potency": "inactive"}
{"smiles": "Cc1ccc(NC(=O)CN2CCSc3ccc(S(=O)(=O)N4CCCC4)cc32)cc1", "Potency": "inconclusive: 32.6 µM [falling, partial curve, poor fit]"}
{"smiles": "CCN(c1cccc(C)c1)c1ncnc2nc[nH]c12", "Potency": "inactive"}
{"smiles": "COc1cccc(O)c1CN1CCC(C(=O)Nc2ccc(-c3cccc(C)c3)cc2)CC1", "Potency": "inconclusive: 23.1 µM [falling, single point]"}
{"smiles": "CCCN1CCN(CCCNC(=O)c2ccccc2NC(=O)C2=C(C)OCCS2)CC1", "Potency": "inactive"}
{"smiles": "CCCSC(=S)NC1CCS(=O)(=O)C1", "note": "(stereo not drawn)", "Potency": "inconclusive: 18.4 µM [falling, single point]"}
{"smiles": "CCOc1ccc(S(=O)(=O)N(CC(=O)NCc2ccccc2OC)c2ccccc2)cc1", "Potency": "inactive"}
{"smiles": "O=C(CSc1ncnc2c1cnn2-c1ccc(F)cc1)NCc1ccc2c(c1)OCO2", "Potency": "inactive"}
{"smiles": "CC1CCCCC1NC(=O)c1ccc(CSc2nc3ccncc3[nH]2)cc1", "note": "(stereo not drawn)", "Potency": "inconclusive: 16.4 µM [activator, partial curve, poor fit]"}
{"smiles": "Cc1cc(C)n(-c2cc(C(C)(C)C)nc3c(-c4ccc(Cl)cc4)cnn23)n1", "Potency": "inconclusive: 29.1 µM [falling, single point]"}
{"smiles": "Cc1ccc(NC(=O)C2CCCN(S(=O)(=O)c3cn(C(C)C)cn3)C2)c(C)c1", "note": "(stereo not drawn)", "Potency": "inactive"}
{"smiles": "COC1=C2C[C@H](C)C[C@H](OC)[C@@H](O)[C@@H](C)C=C(C)[C@H](OC(N)=O)[C@@H](OC)C=CC=C(C)C(=O)NC(=CC1=O)C2=O", "Potency": "inconclusive: 32.6 µM [falling, partial curve, poor fit]"}
{"smiles": "O=[N+]([O-])c1cccc(C=NNc2ccc3ccccc3n2)c1O", "Potency": "inconclusive: 14.6 µM [falling, partial curve]"}
